Results published in the supplement of paper PMC8728848.
This is one part of the list.

Key:
Experiment in all cases: glycan array binding signal (z-score within array); higher = stronger binding
Conditions in all cases: glycan notation: IUPAC condensed, linker removed
[1] = target: Neu5Ac(a2-3)Gal(b1-3)GlcNAc(b1-6)GalNAc
In short: (§1)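 Glycan array data came from 3228 arrays in the Consortium for Functional Glycomics database, and only arrays with an available protein sequence were kept. Glycan names were put into IUPAC-condensed notation, and columns mapping to the same glycan were averaged. The binding signal is a within-array Z-score, averaged across arrays of one protein sequence run at different concentrations or buffers and across linkers. A negative Z-score can be read as non-binding.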

[2] = target: Neu5Ac(a2-3)Gal(b1-3)GlcNAc6S
In short: as §1

[3] = target: Neu5Ac(a2-3)Gal(b1-3)[Fuc(a1-4)]GlcNAc
In short: as §1

[4] = target: Neu5Ac(a2-3)Gal(b1-3)[Fuc(a1-4)]GlcNAc(b1-3)Gal(b1-3)[Fuc(a1-4)]GlcNAc
In short: as §1

[5] = target: Neu5Ac(a2-3)Gal(b1-3)[Fuc(a1-4)]GlcNAc(b1-3)Gal(b1-4)[Fuc(a1-3)]GlcNAc
In short: as §1

[6] = target: Neu5Ac(a2-3)Gal(b1-3)[GlcNAc(b1-6)]GalNAc
In short: as §1

[7] = target: Neu5Ac(a2-3)Gal(b1-3)[Neu5Ac(a2-6)]GalNAc
In short: as §1

[8] = target: Neu5Ac(a2-3)Gal(b1-3)[Neu5Ac(a2-6)]GlcNAc(b1-3)[Fuc(a1-3)[Gal(b1-4)]GlcNAc(b1-6)]Gal(b1-4)Glc
In short: as §1

[9] = target: Neu5Ac(a2-3)Gal(b1-3)]Neu5Ac(a2-3)Gal(b1-4)]GlcNAc
In short: as §1

Neu5Ac(a2-3)Gal(b1-4)Glc = target: Neu5Ac(a2-3)Gal(b1-4)Glc
In short: as §1

[10] = target: Neu5Ac(a2-3)Gal(b1-4)GlcNAc
In short: as §1

[11] = target: Neu5Ac(a2-3)Gal(b1-4)GlcNAc(b1-2)Man
In short: as §1

[12] = target: Neu5Ac(a2-3)Gal(b1-4)GlcNAc(b1-2)Man(a1-3)[GlcNAc(b1-4)][Neu5Ac(a2-3)Gal(b1-4)GlcNAc(b1-2)Man(a1-6)]Man(b1-4)GlcNAc(b1-4)GlcNAc
In short: as §1

[13] = target: Neu5Ac(a2-3)Gal(b1-4)GlcNAc(b1-2)Man(a1-3)[Neu5Ac(a2-3)Gal(b1-4)GlcNAc(b1-2)Man(a1-6)]Man(b1-4)GlcNAc(b1-4)GlcNAc
In short: as §1

[14] = target: Neu5Ac(a2-3)Gal(b1-4)GlcNAc(b1-2)Man(a1-3)[Neu5Ac(a2-3)Gal(b1-4)GlcNAc(b1-2)Man(a1-6)]Man(b1-4)GlcNAc(b1-4)[Fuc(a1-6)]GlcNAc
In short: as §1

[15] = target: Neu5Ac(a2-3)Gal(b1-4)GlcNAc(b1-2)Man(a1-3)[Neu5Ac(a2-6)Gal(b1-4)GlcNAc(b1-2)Man(a1-6)]Man(b1-4)GlcNAc(b1-4)GlcNAc
In short: as §1

[16] = target: Neu5Ac(a2-3)Gal(b1-4)GlcNAc(b1-2)[Neu5Ac(a2-3)Gal(b1-4)GlcNAc(b1-4)]Man(a1-3)[GlcNAc(b1-4)][Neu5Ac(a2-3)Gal(b1-4)GlcNAc(b1-2)[Neu5Ac(a2-3)Gal(b1-4)GlcNAc(b1-6)]Man(a1-6)]Man(b1-4)GlcNAc(b1-4)GlcNAc
In short: as §1

[17] = target: Neu5Ac(a2-3)Gal(b1-4)GlcNAc(b1-2)[Neu5Ac(a2-3)Gal(b1-4)GlcNAc(b1-4)]Man(a1-3)[GlcNAc(b1-4)][Neu5Ac(a2-3)Gal(b1-4)GlcNAc(b1-4)Man(a1-6)]Man(b1-4)GlcNAc(b1-4)GlcNAc
In short: as §1

[18] = target: Neu5Ac(a2-3)Gal(b1-4)GlcNAc(b1-2)[Neu5Ac(a2-3)Gal(b1-4)GlcNAc(b1-6)]Man(a1-6)[Neu5Ac(a2-3)Gal(b1-4)GlcNAc(b1-2)Man(a1-3)][GlcNAc(b1-4)]Man(b1-4)GlcNAc(b1-4)GlcNAc
In short: as §1

[19] = target: Neu5Ac(a2-3)Gal(b1-4)GlcNAc(b1-3)Gal
In short: as §1

[20] = target: Neu5Ac(a2-3)Gal(b1-4)GlcNAc(b1-3)Gal(b1-3)GlcNAc
In short: as §1

[21] = target: Neu5Ac(a2-3)Gal(b1-4)GlcNAc(b1-3)Gal(b1-4)GlcNAc
In short: as §1

[22] = target: Neu5Ac(a2-3)Gal(b1-4)GlcNAc(b1-3)Gal(b1-4)GlcNAc(b1-2)Man(a1-3)[Neu5Ac(a2-3)Gal(b1-4)GlcNAc(b1-3)Gal(b1-4)GlcNAc(b1-2)Man(a1-6)]Man(b1-4)GlcNAc(b1-4)GlcNAc
In short: as §1

[23] = target: Neu5Ac(a2-3)Gal(b1-4)GlcNAc(b1-3)Gal(b1-4)GlcNAc(b1-3)Gal(b1-4)GlcNAc
In short: as §1

[24] = target: Neu5Ac(a2-3)Gal(b1-4)GlcNAc(b1-3)Gal(b1-4)GlcNAc(b1-3)Gal(b1-4)GlcNAc(b1-2)Man(a1-3)[Neu5Ac(a2-3)Gal(b1-4)GlcNAc(b1-3)Gal(b1-4)GlcNAc(b1-3)Gal(b1-4)GlcNAc(b1-2)Man(a1-6)]GalNAc
In short: as §1

[25] = target: Neu5Ac(a2-3)Gal(b1-4)GlcNAc(b1-3)Gal(b1-4)GlcNAc(b1-3)GalNAc
In short: as §1

[26] = target: Neu5Ac(a2-3)Gal(b1-4)GlcNAc(b1-3)Gal(b1-4)GlcNAc(b1-3)[Neu5Ac(a2-3)Gal(b1-4)GlcNAc(b1-3)Gal(b1-4)GlcNAc(b1-6)]GalNAc
In short: as §1

[27] = target: Neu5Ac(a2-3)Gal(b1-4)GlcNAc(b1-3)Gal(b1-4)GlcNAc(b1-6)[Gal(b1-3)]GalNAc
In short: as §1

[28] = target: Neu5Ac(a2-3)Gal(b1-4)GlcNAc(b1-3)Gal(b1-4)[Fuc(a1-3)]GlcNAc
In short: as §1

[29] = target: Neu5Ac(a2-3)Gal(b1-4)GlcNAc(b1-3)GalNAc
In short: as §1

B1: Actd5 (Actinidia), P84527 (protein)
chain: ISSCNGPCRDLNDCDGQLICIKGKCNDDPQVGTHICRGTTHSHQPGGCKPSGTLTCRGKSYPTYDCSPPVTSSTPAKLTNNDFSEGGDDGGPSECDESYHNNNERIVALSTGWYNGGSRCGKMIRITASNGKSVSAKVVDECDSRHGCDKEHAGQPPCRNNIVDGSNAVWSALGLDKNVGVVDITWSMA
glycan array binding signal (z-score) [1]: 0.539 | glycan array binding signal (z-score) [2]: 1 | glycan array binding signal (z-score) [3]: -0.053 | glycan array binding signal (z-score) [4]: -0.697 | glycan array binding signal (z-score) [5]: -0.166 | glycan array binding signal (z-score) [6]: -0.32 | glycan array binding signal (z-score) [7]: -0.993 | glycan array binding signal (z-score) [8]: 0.144 | glycan array binding signal (z-score) [9]: 0.26 | glycan array binding signal (z-score) (Neu5Ac(a2-3)Gal(b1-4)Glc): 0.612 | glycan array binding signal (z-score) [10]: -0.811 | glycan array binding signal (z-score) [11]: -0.448 | glycan array binding signal (z-score) [12]: 0.172 | glycan array binding signal (z-score) [13]: -0.792 | glycan array binding signal (z-score) [14]: -0.173 | glycan array binding signal (z-score) [15]: -0.869 | glycan array binding signal (z-score) [16]: -0.296 | glycan array binding signal (z-score) [17]: -0.344 | glycan array binding signal (z-score) [18]: -0.894 | glycan array binding signal (z-score) [19]: -0.737 | glycan array binding signal (z-score) [20]: 0.147 | glycan array binding signal (z-score) [21]: 0.453 | glycan array binding signal (z-score) [22]: 2.42 | glycan array binding signal (z-score) [23]: -1.55 | glycan array binding signal (z-score) [24]: 5.66 | glycan array binding signal (z-score) [25]: -0.279 | glycan array binding signal (z-score) [26]: 0.948 | glycan array binding signal (z-score) [27]: 0.154 | glycan array binding signal (z-score) [28]: -0.419 | glycan array binding signal (z-score) [29]: 0.374
